{
  "source": "PubChem BioAssay AID504834",
  "about": "(National Center for Advancing Translational Sciences (NCATS), 2011)",
  "note": "The whole screen tested about 320,000 compounds, of which about 22,000 (6.9%) were called active. This list was built around the results that the source calls inconclusive (neither active nor inactive); the mix of calls is not that of the screen. Calls follow the shape of the dose curve; as a rule, active = well fitted inhibition curve with a large enough effect; inconclusive = small, poorly fitted or top-dose-only effect, or another doubt; inactive = no such curve, though single readings can be large or run the other way. Where the call is inconclusive, the potency comes from a doubtful curve fit. Potency is read from the fitted curve at half-maximal effect.",
  "data": [
    {"experiment": "Primary qHTS for delayed death inhibitors of the malarial parasite plastid, 96 hour incubation", "conditions": "P. falciparum luciferase reporter growth; series mostly up to 28.7 µM", "outline": "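Plates of compound plus infected erythrocytes (2% hematocrit, 0.05% parasitemia final) incubate 96 hours, 37 C, 5% CO2. Detection reagent added; reduced luminescence from the parasites' luciferase reporter flags inhibition.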", "values": [
      {"smiles": "Cc1nonc1OCC(C)(COc1nonc1C)NC(=O)c1ccccc1", "Potency": "inconclusive: 11.7 µM [inhibitor, single point]"},
      {"smiles": "CCc1ccc(/C=C2\\Oc3cc(OC(=O)N4CCOCC4)ccc3C2=O)cc1", "Potency": "active: 10.4 µM"},
      {"smiles": "CCN(CC)S(=O)(=O)c1ccc2c(c1)nc(CCC(=O)Nc1ccc(N3CCOCC3)cc1)n2C", "Potency": "inconclusive: 11.7 µM [inhibitor, partial curve, poor fit]"},
      {"smiles": "Cc1cc(C)c2c(SC(C)C)nc(N)nc2n1", "Potency": "inactive"},
      {"smiles": "Cc1cc(O)cc2c(=O)c3ccccc3sc12", "Potency": "inconclusive: 1.85 µM [inhibitor, full curve]"},
      {"smiles": "COc1ccccc1CNC(=O)c1ccccc1C(=O)NC(C)(C)C(=O)NCc1ccccc1OC", "Potency": "active: 13.1 µM"},
      {"smiles": "Cc1ccn2c(NC(=O)c3cccs3)c(-c3ccccc3)nc2c1", "Potency": "inconclusive: 2.33 µM [inhibitor, full curve, poor fit]"},
      {"smiles": "O=C(CN1C(=O)COc2ccc(Cl)cc21)NC1CC1", "Potency": "inconclusive: 11.7 µM [inhibitor, single point]"},
      {"smiles": "Cc1ccc(/C=N/Nc2nc3ccccc3[nH]2)s1", "Potency": "inconclusive: 1.04 µM [inhibitor, full curve, poor fit]"},
      {"smiles": "O=C(O)c1ccccc1-c1ccccc1C(=O)NCCc1ccccc1", "Potency": "inactive"},
      {"smiles": "Cc1c(C)c2ccc(OCC(=O)N3CCN(c4cccc(Cl)c4)CC3)cc2oc1=O", "Potency": "inconclusive: 18.5 µM [inhibitor, single point]"},
      {"smiles": "Cc1cc2nc(Sc3c([N+](=O)[O-])nc(C)n3Cc3ccccc3)[nH]c2cc1C", "Potency": "inconclusive: 5.22 µM [inhibitor, partial curve]"},
      {"smiles": "[N-]=[N+]=NC1C[C@H](n2ccc(=O)[nH]c2=O)O[C@@H]1CO", "note": "(some centres undefined)", "Potency": "inactive"},
      {"smiles": "COc1ccc(CC(=O)Nc2c3c(nn2-c2cccc(C)c2C)CS(=O)C3)cc1", "note": "(centres undefined)", "Potency": "inconclusive: 18.5 µM [inhibitor, single point]"},
      {"smiles": "CN(C)S(=O)(=O)Oc1ccccc1C(=O)Nc1cccc(C(F)(F)F)c1", "Potency": "inactive"},
      {"smiles": "O=c1c2ccccc2n(CC(O)CN2CCOCC2)c2ccccc12", "note": "(centres undefined)", "Potency": "inconclusive: 3.29 µM [inhibitor, full curve]"},
      {"smiles": "COC(=O)c1nc(-c2ccc3c(n2)C(=O)C(N)=C(OC)C3=O)c(N)c(-c2ccc(OC)c(OC)c2O)c1C", "Potency": "inconclusive: 0.0522 µM [inhibitor, full curve]"},
      {"smiles": "CSC1=C(C#N)C(c2ccccc2Cl)C2=C(CCCC2=O)N1", "note": "(centres undefined)", "Potency": "inconclusive: 10.4 µM [inhibitor, single point]"},
      {"smiles": "COc1cc(NC(=O)c2ccnc(N)c2)cc(C(=O)Nc2cccc(C(F)(F)F)c2)c1", "Potency": "active: 1.85 µM"},
      {"smiles": "N#CC1=C(N)NC(SCC(=O)c2ccccc2)=C(C#N)C12CCCC2", "Potency": "inconclusive: 10.4 µM [inhibitor, single point]"},
      {"smiles": "COc1ccccc1CNC(=O)CSc1nnc2ccc(-c3cccnc3)nn12", "Potency": "inconclusive: 2.08 µM [inhibitor, partial curve, poor fit]"},
      {"smiles": "Cc1cc(Cl)c(S(=O)(=O)Nc2ccc3c(c2)OCCO3)cc1OCC(=O)NC1CCCCC1", "Potency": "inconclusive: 10.4 µM [inhibitor, single point]"},
      {"smiles": "Cc1cccc(C)c1NC(=O)CN(C)C(=O)c1ccccc1Cc1ccccc1", "Potency": "inconclusive: 5.22 µM [inhibitor, partial curve]"},
      {"smiles": "Cc1ccc(NC(=O)C2CCCN(c3nccc(C)n3)C2)c(C)c1", "note": "(centres undefined)", "Potency": "inactive"},
      {"smiles": "CCOC(=O)C1CCCN(C2CC(=O)N(c3ccc(C(C)C)cc3)C2=O)C1", "note": "(centres undefined)", "Potency": "inactive"},
      {"smiles": "Nc1ccn(CC(=O)NCc2ccccn2)c(=O)n1", "Potency": "inactive"},
      {"smiles": "CCOC(=O)N1CCC(=NNC(=O)COc2cccc(C)c2)CC1", "Potency": "inconclusive: 0.0033 µM [inhibitor, full curve, poor fit]"},
      {"smiles": "Cc1ccc(N2CC(C(=O)NNC(=O)c3ccc(F)cc3)CC2=O)cc1", "note": "(centres undefined)", "Potency": "inconclusive: 18.5 µM [inhibitor, single point]"},
      {"smiles": "O=C(NCC(=O)N(c1cccc(F)c1)C(C(=O)NCC1CCCO1)c1ccccc1)c1ccco1", "note": "(centres undefined)", "Potency": "inconclusive: 18.5 µM [inhibitor, single point]"},
      {"smiles": "COc1cc(Cl)c(NS(=O)(=O)c2ccc(-c3ccc(=O)[nH]n3)o2)c(OC)c1", "Potency": "inactive"},
      {"smiles": "O=C(NCc1ccncc1)C12CC3CC(CC(Cl)(C3)C1)C2", "Potency": "inactive"},
      {"smiles": "COc1cc2c(cc1OC)C(c1cccc(Br)c1)NC(=O)C2", "note": "(centres undefined)", "Potency": "inactive"},
      {"smiles": "COc1ccc(CNCC(O)COc2cccc3c2OC(C)(C)C3)cc1", "note": "(centres undefined)", "Potency": "inconclusive: 10.4 µM [inhibitor, single point]"},
      {"smiles": "CCOc1ccc(S(=O)(=O)Nc2ccc(C(=O)N3CCCC3)cc2)cc1C(N)=O", "Potency": "inconclusive: 14.7 µM [inhibitor, single point]"},
      {"smiles": "COC(=O)c1ccc(-c2noc(CN(Cc3ccncc3)CC3CCCO3)n2)cc1", "note": "(centres undefined)", "Potency": "inactive"},
      {"smiles": "Cc1c(CCC(=O)NCCC(=O)O)c(=O)oc2c(C)c3oc4c(c3cc12)CCCC4", "Potency": "inactive"},
      {"smiles": "NC(=S)n1[nH]c(-c2ccc([N+](=O)[O-])cc2)c(N=Nc2ccc(Cl)cc2)c1=O", "Potency": "inactive"},
      {"smiles": "CN(C)CCCNC(=O)N1c2ccccc2C=Cc2ccccc21", "Potency": "inconclusive: 18.5 µM [inhibitor, single point]"},
      {"smiles": "CC(C)CCN1CC(C(=O)NCc2ccccc2)CC1=O", "note": "(centres undefined)", "Potency": "inconclusive: 18.5 µM [inhibitor, single point]"},
      {"smiles": "CCOc1cccc(=NC2CCCCC2)c2c(C)[nH]c(C)c12", "Potency": "inconclusive: 4.15 µM [inhibitor, single point]"},
      {"smiles": "Cc1ccc(-c2nc(CS(=O)(=O)CC(=O)N3CC(C)CC(C)C3)c(C)o2)cc1", "note": "(centres undefined)", "Potency": "inconclusive: 10.4 µM [inhibitor, single point]"},
      {"smiles": "Cc1csc(=S)n1-c1ccccc1", "Potency": "inconclusive: 13.1 µM [inhibitor, single point]"},
      {"smiles": "CC(C)Oc1ccc(C(=O)OCC(=O)NCCNC(=O)COC(=O)c2ccc(OC(C)C)cc2)cc1", "Potency": "active: 13.1 µM"},
      {"smiles": "CCOC(=O)CC(=O)CSc1ccc2nnc(-c3ccccc3)n2n1", "Potency": "inconclusive: 16.5 µM [inhibitor, partial curve, poor fit]"},
      {"smiles": "COc1cccc(C2(C#N)CCN(C)CC2)c1", "Potency": "inconclusive: 10.4 µM [inhibitor, single point]"},
      {"smiles": "COCCNC(=O)c1cccc(OC2CCN(Cc3ccc(Cl)c(F)c3)CC2)c1", "Potency": "inconclusive: 18.5 µM [inhibitor, single point]"},
      {"smiles": "Cn1c(=O)c(C(=O)NC2CCCCCCC2)c(O)c2ccccc21", "Potency": "inconclusive: 14.7 µM [inhibitor, single point]"},
      {"smiles": "CN1CCN(C(=O)Cn2ncc3c([nH]c4ccccc43)c2=O)CC1", "Potency": "inconclusive: 4.65 µM [inhibitor, partial curve, poor fit]"},
      {"smiles": "Cc1cccc(CN2CCN(c3nc4nonc4nc3NC3CC3)CC2)c1", "Potency": "inconclusive: 2.94 µM [inhibitor, full curve, poor fit]"},
      {"smiles": "CN(Cc1nc(-c2ccc3c(c2)OCO3)no1)CC1(N2CCOCC2)CCCCC1", "Potency": "inconclusive: 3.29 µM [inhibitor, single point]"},
      {"smiles": "Cc1cc(NC(=O)NC(=O)c2ccccc2)no1", "Potency": "inconclusive: 2.62 µM [inhibitor, partial curve]"},
      {"smiles": "COc1ccc(C2=NS(=O)(=O)N(C)C(C(=O)NC3CCCCC3)=C2)cc1", "Potency": "inconclusive: 1.17 µM [inhibitor, partial curve, poor fit]"},
      {"smiles": "Cc1cc(C)cc(N(C(=O)CNS(=O)(=O)c2ccccc2)C(C(=O)NCc2ccccc2)c2ccc(C)o2)c1", "note": "(centres undefined)", "Potency": "inactive"},
      {"smiles": "Cc1cc(C)c2nc(-c3cccnc3)cc(C(=O)NC(C)c3cnn(C)c3C)c2c1", "note": "(centres undefined)", "Potency": "inconclusive: 18.5 µM [inhibitor, single point]"},
      {"smiles": "CN(CC(=O)Nc1ccc(Cl)c(C(F)(F)F)c1)C(=O)CCC(=O)c1ccccc1", "Potency": "inconclusive: 14.7 µM [inhibitor, partial curve, poor fit]"},
      {"smiles": "NC(=O)c1nsc(C(=O)N(CCc2ccccc2)C(C(=O)NC2CCCC2)c2ccco2)c1N", "note": "(centres undefined)", "Potency": "active: 10.4 µM"},
      {"smiles": "O=C(Cn1cnc2c(cnn2-c2ccccc2)c1=O)N1CCOCC1", "Potency": "inactive"},
      {"smiles": "CCOC(=O)c1cnc2cc(F)c(F)cc2c1N1CCN(C)CC1", "Potency": "inconclusive: 4.65 µM [inhibitor, partial curve]"},
      {"smiles": "CCOc1ccc(CCNC(=O)c2ccc3c(c2)NC(=O)C2CCCN32)cc1OCC", "note": "(centres undefined)", "Potency": "active: 9.28 µM"},
      {"smiles": "COc1cccc(N(C(=O)c2ccco2)c2nc(-c3sc(NC(=O)c4ccco4)nc3C)cs2)c1", "Potency": "inconclusive: 0.104 µM [inhibitor, full curve, poor fit]"},
      {"smiles": "COc1ccc(C(=O)Nc2ccc(N3CCCC3)cc2)cc1Br", "Potency": "inconclusive: 4.15 µM [inhibitor, single point]"},
      {"smiles": "CC1(c2ccc([N+](=O)[O-])cc2)Nc2ccccc2S1", "note": "(centres undefined)", "Potency": "inactive"},
      {"smiles": "CCCOc1ccc(/C=N/NC(=O)C(C)Sc2ccccn2)cc1OCC", "note": "(centres undefined)", "Potency": "inconclusive: 18.5 µM [inhibitor, single point]"},
      {"smiles": "O=C(NCc1ccccc1)c1ccc2nc(-c3ccco3)c(-c3ccco3)nc2c1", "Potency": "active: 11.7 µM"},
      {"smiles": "O=C1COc2ccc3ccccc3c21", "Potency": "inactive"},
      {"smiles": "Cc1ccc(NC(=O)C(C)OC(=O)c2ccc(NC(=O)CC#N)cc2)cc1S(=O)(=O)N1CCOCC1", "note": "(centres undefined)", "Potency": "inconclusive: 9.28 µM [inhibitor, partial curve]"},
      {"smiles": "Cc1ccc(OCc2nnc(SCc3cc(=O)[nH]c4ccccc34)n2-c2ccccc2)cc1", "Potency": "active: 5.86 µM"},
      {"smiles": "CCOC(=O)Nc1ccc2c(c1)Sc1ccccc1N2C(=O)CCN1CCOCC1", "Potency": "inactive"},
      {"smiles": "O=S(=O)(c1ccccc1)c1nc(-c2cccs2)oc1NCc1cccnc1", "Potency": "inconclusive: 10.4 µM [inhibitor, partial curve, poor fit]"}
    ]}
  ]
}
